# Primary screen of a compound library

Amino acid sequences for entries named in this document (tags omitted). Residues count along the entry.
UniProt Q4DA54, 1-478: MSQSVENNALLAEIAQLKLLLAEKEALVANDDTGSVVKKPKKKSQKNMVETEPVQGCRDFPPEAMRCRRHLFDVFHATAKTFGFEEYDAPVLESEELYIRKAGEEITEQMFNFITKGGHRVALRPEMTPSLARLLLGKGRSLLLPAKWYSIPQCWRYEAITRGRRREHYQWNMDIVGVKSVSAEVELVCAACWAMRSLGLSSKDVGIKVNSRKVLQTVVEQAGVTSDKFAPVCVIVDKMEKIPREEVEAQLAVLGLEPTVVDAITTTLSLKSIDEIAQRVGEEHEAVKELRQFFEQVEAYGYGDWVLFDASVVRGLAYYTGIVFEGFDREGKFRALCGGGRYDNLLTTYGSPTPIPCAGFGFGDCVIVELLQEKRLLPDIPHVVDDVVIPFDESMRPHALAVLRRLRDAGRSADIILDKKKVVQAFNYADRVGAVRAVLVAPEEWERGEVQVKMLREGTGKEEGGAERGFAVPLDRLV
UniProt A4I591, 1-473: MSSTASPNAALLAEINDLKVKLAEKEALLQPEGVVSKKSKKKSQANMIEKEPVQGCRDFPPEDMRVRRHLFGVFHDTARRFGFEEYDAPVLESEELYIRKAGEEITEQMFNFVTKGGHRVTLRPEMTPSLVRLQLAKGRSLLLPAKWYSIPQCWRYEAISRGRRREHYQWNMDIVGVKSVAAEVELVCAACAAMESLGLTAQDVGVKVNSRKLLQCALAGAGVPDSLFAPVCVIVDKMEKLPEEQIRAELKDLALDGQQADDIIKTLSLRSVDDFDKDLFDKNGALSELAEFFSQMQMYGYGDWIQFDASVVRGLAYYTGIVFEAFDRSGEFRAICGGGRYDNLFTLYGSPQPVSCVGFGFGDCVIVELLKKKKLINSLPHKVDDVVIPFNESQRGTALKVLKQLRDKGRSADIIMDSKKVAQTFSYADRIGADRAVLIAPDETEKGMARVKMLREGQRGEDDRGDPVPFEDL

Source: ChEMBL document CHEMBL3988442, “University of Dundee, Small-Polar-MMV Screening Library” (2021).

T. brucei: 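Whole-parasite assay of Trypanosoma brucei over 72 hours; the read-out is not stated. Concentration: 30 µM. Direction is inferred from retests: higher values go with stronger inhibition. Values scatter widely below zero; nearly all retest evidence comes from the higher of the two concentrations used. Of about 64,000 compounds tested this way, about 940 (1.5%) reached 50% or more in at least one test.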
TcHisRS: 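Enzyme assay of histidyl-tRNA synthetase; the read-out is not stated. Target: Histidine-tRNA ligase, Trypanosoma cruzi CL Brener (UniProt Q4DA54). Tested at 30 µM. The record gives no direction; compounds that gave an IC50 in retests scored well above the rest, so higher reads as stronger inhibition. Of about 69,000 compounds tested this way, about 31 (0.045%) reached 50% or more in at least one test.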
LiHisRS: 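Histidine-tRNA ligase, Leishmania infantum (UniProt A4I591). Enzyme assay of histidyl-tRNA synthetase; the read-out is not stated. Compounds at 30 µM. The record gives no direction; compounds that gave an IC50 in retests scored well above the rest, so higher reads as stronger inhibition. The assay is labelled LdHisRS but filed under L. infantum. Of about 69,000 compounds tested this way, about 410 (0.6%) reached 50% or more in at least one test.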

Results are given as percent effect. How 0% and 100% were set is not recorded. Most values in the screen are low, and negative values occur. Compounds were drawn at random from those tested, without regard to their results. A dash means the value is not listed here; it may have been measured.

structure | T. brucei | TcHisRS | LiHisRS
Cc1ccccc1SC1CCN(C(=O)C2CNCC(=O)N2)CC1 (stereo not given) | 6.741 | 3.665 | 13.98
O=S(=O)(c1cccs1)N1Cc2nc(COCC3CC3)oc2C1 | 2.04 | 2.513 | 3.96
CCOC(=O)N1CC(C)=C(C)CN1C(=O)Nc1ccc(Cl)c(Cl)c1 | 25.45 | 1.156 | 16.49
COCCN1C(=O)CCC12CCN(C(=O)NC(C)C)CC2 | -5.512 | 3.008 | 0
Cc1nc(C2CCCN(C(=O)c3c[nH]c(C(C)C)n3)C2)no1 (stereo not given) | -19.84 | 2.305 | 5.357
Cc1nc(S(=O)(=O)CCn2cccn2)n(CC2CCCO2)c1C (stereo not given) | -15.44 | 6.404 | 11.69
CNC(=O)NC1CC2(CCNCC2)c2ccc(C)cc21 (stereo not given) | -72.08 | 5.376 | 10.53
O=C(c1ccnc(-n2ccnc2)c1)N1CCCC(n2cccn2)C1 (stereo not given) | 10.76 | -1.433 | 7.018
Cc1cn2c(=O)c(-c3ccnc(N[C@@H]4CCOC4)n3)cnc2s1 | 24.37 | 10.17 | 20
O=C(NC1CCCN(CCc2ccccc2)C1)c1ccccn1 (stereo not given) | -10.41 | 7.538 | 15.73
CCC(=O)N1CCc2nc(N3CCOCC3)nc(N(C)C)c2CC1 | -73.6 | 0 | 6.897
COCCNc1ncc(-c2cc(C)no2)c(-c2ccco2)n1 | -6.793 | 2.682 | 10.07
O=C(COc1coc(CN2CCOCC2)cc1=O)Nc1ccccc1F | -38.45 | 4.094 | 23.68
Cc1ccc(C)c(C(NC2CCCC2)c2cccnc2)c1 (stereo not given) | -20.94 | 5.747 | 11.29
COCc1nc2cc(NCc3csc(C)n3)ccc2o1 | -36.02 | 6.897 | 29.46
CC(C)c1cc(NC(=O)CN2CCc3cncnc3C2)on1 | 51 | 6.87 | 24.66
CCC1(C(=O)O)CCCN(C(=O)c2ccc(O)c(Cl)c2)C1 (stereo not given) | 1.323 | 5.195 | 6.667
O=C(c1cc2c(s1)CCN2C(=O)C1CC1)N1CCCC1 | -7.927 | 6.897 | 15.79
CCOc1ccccc1CN1CCc2nc3ccsc3c(=O)n2CC1 | - | 2.996 | 16
c1cc(CCN2CCC(NCc3ccsc3)CC2)ccn1 | -15.68 | 3.261 | 27.27
O=C1[C@H]2CN(Cc3cccs3)C[C@H]2CN1c1ccsc1 | - | 7.563 | 21.1
O=C(NCCCOCC1CCCO1)c1cccnc1N1CCOCC1 (stereo not given) | -102.9 | 3.139 | -34.12
CN(CCCc1cc(-c2ccccc2)n[nH]1)C(=O)CCCn1cncn1 | 4.496 | 4.516 | 9.091
O=C(CN1CCOC(Cn2cncn2)C1)NCc1cccs1 (stereo not given) | - | 3.207 | -7.339
COCCN1CC[C@@H]2CN(Cc3nccn3C)C[C@@H]2C1 | - | 7.563 | 15.6
CCOC(=O)N1CCC2(CCNC2)C1.Cl (stereo not given) | -21.68 | - | -
CSc1nccc(N2CCC3(CCCN(Cc4cccc(C)c4)C3)C2)n1 (stereo not given) | 99.66 | 22.32 | 24.78
Cc1nn2c(N3CCS(=O)(=O)CC3)cc(-c3ccccc3)nc2c1C | -47.16 | 5.102 | 27.42
O=C(CCc1ccncc1)N1CCCC(n2cccn2)C1 (stereo not given) | 8.752 | 7.692 | 17.86
CN(C)C(=O)N1CCc2c(nnn2C)C1COCC1CC1 (stereo not given) | 7.838 | 2.941 | 25.71
O=C(NCC(O)c1ccccc1C(F)(F)F)c1cccnc1 (stereo not given) | -97.33 | 6.494 | 10
O=C(O)C(F)(F)F.[H][C@@]12CN(C(=O)c3cnoc3C)C[C@]1([H])C(=O)N(Cc1cccc(C)n1)C2 | 4.92 | - | -
O=C(c1cc(Cl)c2c(c1)OCO2)N1CCN(c2ncccn2)CC1 | -58.33 | -2.242 | 24.71
CS(=O)(=O)N1CCC2(CC1)COC(COc1cccnc1)C2 (stereo not given) | - | -1.149 | 15.79
Cc1cccc(CN2C(=O)CC[C@@H]3[C@H]2CCN3Cc2ccc(C)s2)n1 | - | 3.825 | 8.029
Cc1ccc(NC2CCN(C(=O)c3ccoc3C)CC2)nn1 | - | 8.824 | 18.35
O=C(CNc1cc(-c2ccccc2)nc2ccnn12)NC1CC1 | -21.84 | 1.064 | 6.25
Cn1cc(CNc2nc3cc(Cl)ccc3n2C)cn1 | -2.723 | 4.663 | 10.11
C=C(C)CNc1nc(CS(=O)(=O)c2ccccc2)cs1 | -6.535 | 8.621 | 6.25
CN1CCC(Cc2noc(CC3CC3)n2)CC1 | -10.12 | -0.5405 | 11.97
CC(C)c1nnc2n1CCN(c1nn3cc(C(C)(C)C)nc3s1)C2 | -9.501 | 2.762 | 3.125
O=C(O)C(F)(F)F.[H][C@@]12CCN(c3ncccn3)C[C@]1([H])[C@H](C(=O)NCC1CC1)CCO2 | -8.765 | - | -
CCCc1ccc(CN2CCC3(CC2)CNC(=O)C3)o1 | -33.14 | -3.478 | 11.67
COCCN(Cc1ccccc1)C(=O)c1cnn(C)c1C | -16.12 | 7.937 | 1.333
CC(O)CNC(=O)CCc1nc2ncccc2[nH]1 (stereo not given) | -29.8 | -1.754 | 10.53
O=C(CCc1ccco1)Nc1cc(C(F)(F)F)c[nH]c1=O | 28.02 | 3.468 | 11.4
Cc1noc(CCCC(=O)NC(C)c2ccc(Cl)s2)n1 (stereo not given) | 5.638 | 7.692 | 14.29
O=C(NCCN1CCCCC1)c1ccoc1 | -8.866 | 2.662 | -3.125
Cc1cc(C(F)(F)F)nc(CNC(=O)CCn2cccn2)n1 | -5.792 | 5.025 | 15.29

For reference, 4 entries once more:

structure,T. brucei,TcHisRS,LiHisRS
O=C(NCCCOCC1CCCO1)c1cccnc1N1CCOCC1 (stereo not given),-102.9,3.139,-34.12
CN(CCCc1cc(-c2ccccc2)n[nH]1)C(=O)CCCn1cncn1,4.496,4.516,9.091
O=C(CCc1ccco1)Nc1cc(C(F)(F)F)c[nH]c1=O,28.02,3.468,11.4
O=C(c1cc2c(s1)CCN2C(=O)C1CC1)N1CCCC1,-7.927,6.897,15.79